Reference: PMC8536318
No constants are given. Whether binding was seen depends on the method and setting. In cells and extracts the contact can be indirect. Some results given as binding are weak or reduced against the parent protein; the word gives no strength. For part of these data: Tags and fused reporters may be left off the sequences shown. Each block holds one molecule with its values, some of them ahead of it.

Protein sequences, listed by entry. Tags and fused reporters are not part of them. Lines headed by an entry give the natural chain unless they say otherwise; changes in a name come on top.
UniProt Q96LZ3: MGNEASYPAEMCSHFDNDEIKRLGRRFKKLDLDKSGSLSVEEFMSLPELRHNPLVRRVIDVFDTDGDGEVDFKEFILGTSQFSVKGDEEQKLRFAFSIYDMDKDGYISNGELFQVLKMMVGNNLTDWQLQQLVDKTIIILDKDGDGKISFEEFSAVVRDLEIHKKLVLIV
UniProt P48455: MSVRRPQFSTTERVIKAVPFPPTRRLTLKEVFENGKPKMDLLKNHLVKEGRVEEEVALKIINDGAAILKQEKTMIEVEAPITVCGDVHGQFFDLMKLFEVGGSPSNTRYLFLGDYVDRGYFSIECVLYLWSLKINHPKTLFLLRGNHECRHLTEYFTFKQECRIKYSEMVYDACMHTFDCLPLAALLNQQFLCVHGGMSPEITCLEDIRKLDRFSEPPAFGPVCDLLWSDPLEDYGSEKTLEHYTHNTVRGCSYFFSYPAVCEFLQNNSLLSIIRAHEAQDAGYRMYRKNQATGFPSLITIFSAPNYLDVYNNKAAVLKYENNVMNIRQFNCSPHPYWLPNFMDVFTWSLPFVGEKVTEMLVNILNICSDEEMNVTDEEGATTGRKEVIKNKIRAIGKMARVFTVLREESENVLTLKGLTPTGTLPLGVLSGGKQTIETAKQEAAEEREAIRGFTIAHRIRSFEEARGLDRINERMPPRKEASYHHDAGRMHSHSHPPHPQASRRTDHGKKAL
UniProt Q63811: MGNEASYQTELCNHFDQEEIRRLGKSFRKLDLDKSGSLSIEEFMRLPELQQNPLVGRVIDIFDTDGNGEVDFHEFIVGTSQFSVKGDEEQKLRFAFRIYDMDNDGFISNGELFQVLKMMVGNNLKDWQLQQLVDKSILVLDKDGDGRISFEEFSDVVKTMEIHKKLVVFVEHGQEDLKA
UniProt Q9DCC8: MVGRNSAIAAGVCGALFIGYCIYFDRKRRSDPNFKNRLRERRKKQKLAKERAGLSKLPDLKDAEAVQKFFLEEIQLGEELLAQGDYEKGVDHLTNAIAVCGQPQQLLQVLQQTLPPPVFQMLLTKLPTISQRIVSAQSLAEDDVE

Tests used:
[1] = biological target: T1, SPATA33-PA expressed in the testis of Spata33-PA transgenic mice (mouse) (UniProt Q8C624); assay: co-IP; testis lysates of SPATA33-PA TG mice; IP with anti-PA antibody on Dynabeads; Western blot
T1 sequence: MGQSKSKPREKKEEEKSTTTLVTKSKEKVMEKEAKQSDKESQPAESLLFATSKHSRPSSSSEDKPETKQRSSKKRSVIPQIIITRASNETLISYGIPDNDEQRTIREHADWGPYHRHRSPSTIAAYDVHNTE

[2] = biological target: human sperm calcineurin (human) (UniProt P48454+Q96LZ3); assay: co-IP; HEK293T cells coexpressing human calcineurin (sperm or somatic) and human SPATA33 (SI Appendix, Fig. S6C); bait not given
[3] = biological target: T2, PA-tagged SPATA33 (mouse, wild type, PQIIIT sequence) (mouse) (UniProt Q8C624); assay: co-IP; reciprocal immunoprecipitation, HEK293T cells coexpressing sperm calcineurin and SPATA33 (PQIIIT or PQIIAT); SPATA33 precipitated (SI Appendix, Fig. S6A)
T2 sequence: T1 sequence

[4] = biological target: sperm calcineurin (FLAG-tagged PPP3CC coexpressed with PPP3R2) (mouse (by the mouse gene notation Ppp3cc) | mouse (by the mouse gene notation Ppp3r2)) (UniProt P48455+Q63811); assay: co-IP; HEK293T cells coexpressing Spata33-PA (or mutant) and Ppp3cc-FLAG/Ppp3r2; lysis in 1% Triton X-100, 50 mM NaCl, 20 mM Tris HCl pH 7.4; IP with FLAG M2 antibody on Dynabeads, 60 min at 4 °C; Western blot
[5] = biological target: sperm calcineurin with FLAG-tagged PPP3CC, from the testis of Ppp3cc-FLAG transgenic mice (mouse (by the mouse gene notation Ppp3cc) | mouse (endogenous in testis)) (UniProt P48455+Q63811); assay: co-IP; testis lysates of Ppp3cc-FLAG TG mice; IP with anti-FLAG antibody on Dynabeads; Western blot

Molecule: TOM20, mitochondrial outer membrane protein (from UniProt Q9DCC8 1-145)
- binding [1]: no binding

Molecule: sperm calcineurin (FLAG-tagged PPP3CC coexpressed with PPP3R2) (from UniProt P48455 1-513; Q63811 1-179) (complex)
- binding [3]: binds

Molecule: sperm calcineurin (PPP3CC with PPP3R2), endogenous in mouse testis (from UniProt P48455 1-513; Q63811 1-179) (complex)
- binding [1]: binds

Other lines, results leading:

- binding [2]: binds
Molecule: human SPATA33 (from UniProt Q96N06 1-139)

- binding [4]: binds
B1: PA-tagged SPATA33 (mouse, wild type, PQIIIT sequence) (protein, UniProt Q8C624 1-132)
chain: T1 sequence

- binding [5]: binds
B2: SPATA33, endogenous in mouse testis (protein, UniProt Q8C624 1-132)
chain: T1 sequence
